# Data as given in PubChem BioAssay AID587 (National Center for Advancing Translational Sciences (NCATS), 2007).
# The whole screen tested about 59,000 compounds, of which about 35 (0.06%) were called active. Inconclusive results, whose numbers are uncertain, are shown with a selection of clear calls. Rule as the data show it: active = max dye-equivalent concentration above about 10 nM; inconclusive = between about 1.1 nM and that limit; inactive = weaker than that.
# Assay: qHTS Assay for Spectroscopic Profiling in Texas Red Spectral Region
# Settings: Compound fluorescence, Texas Red channel, 547/618 nm; hits give high values
# In short: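 Compound titrations in 100 mM Tris pH 8.0 were incubated 15 min at room temperature and read at 547 nm excitation / 618 nm emission. Texas Red six-point standard curve on each plate converted fluorescence to dye-equivalent concentration.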
row,SMILES,max dye-equivalent concentration
1,COc1cc(C(=O)OCC(=O)Nc2c(F)c(F)c(F)c(F)c2F)cc(OC)c1OC,inconclusive: 2.1 nM
2,O=C(Nc1cccnc1N1CCOCC1)c1cc2ccccc2oc1=O,inconclusive: 1.8 nM
3,Clc1ccccc1-c1nn2c(COc3ccccc3)nnc2s1,inconclusive: 1.1 nM
4,CCOc1ccc(NS(=O)(=O)c2ccc(OCC(=O)NCCCOC)cc2)cc1,inconclusive: 1.2 nM
5,Cc1cc(C(=O)O)c(CSc2ncn[nH]2)o1,inconclusive: 1.1 nM
6,COCCn1nnnc1CN1CCC(Cc2ccccc2)CC1,inconclusive: 2 nM
7,Cc1c(-c2ccccc2)[n+](=O)c(-c2ccco2)c(C)n1[O-],inconclusive: 1.4 nM
8,CCOc1ccc(NS(=O)(=O)c2ccc(OCC(=O)N3CCCC3)cc2)cc1,inconclusive: 1.4 nM
9,Cc1ccnc(NS(=O)(=O)c2cccc3nsnc23)c1,inconclusive: 1.2 nM
10,COc1cc2nc(N3CC=[N+](C(=O)c4ccco4)CC3)nc(N)c2cc1OC,inactive
11,O=C(Nc1ccc(Cl)cc1C(=O)NCC1CCCO1)c1ccco1 (stereo not drawn),inconclusive: 1.7 nM
12,CN1CCc2c(sc3c2C(=O)NC(c2ccco2)N3)C1 (stereo not drawn),inactive
13,CCOc1ccc(N2C(=O)CC(N3CCN(c4ccc(C(=O)c5ccncc5)cc4)CC3)C2=O)cc1 (stereo not drawn),inconclusive: 1.1 nM
14,Cn1c(=O)c2c(nc(SCC(=O)NCc3ccc4c(c3)OCO4)n2Cc2ccccc2)n(C)c1=O,inconclusive: 1.3 nM
15,COc1ccc(CNC(=O)C(C#N)c2nc3ccccc3nc2N2CCN(C)CC2)cc1 (stereo not drawn),inactive
16,O=c1oc2c(CN3CCCCCC3)c(O)ccc2cc1-c1nc2ccccc2[nH]1,inactive
17,Cc1nc2cncnc2n(Cc2ccccc2)c1=O,inactive
18,CS(=O)(=O)N1CCC(C(=O)Nc2ccc(OCc3ccccc3)cc2)CC1,inconclusive: 1.3 nM
19,CCOC(=O)c1cnc(-n2nc(C)cc2C)nc1N(CC)CC,inactive
20,O=c1cc(CSc2nnc(COc3ccc(Cl)cc3)o2)c2ccccc2[nH]1,inconclusive: 1.3 nM
21,CC(C)COC(=O)C1[C@H]2C(=O)N(Cc3cccs3)C[C@]23C=C[C@H]1O3 (stereo partly drawn),inconclusive: 1.3 nM
22,CCCc1cc(N2CCCC2)n2nc(C)c(-c3ccccc3)c2n1,inconclusive: 1.4 nM

row,SMILES,max dye-equivalent concentration
1,CCN1c2ccccc2-c2nc3ccccc3n2C1c1ccncc1 (stereo not drawn),inconclusive: 1.6 nM
2,Cn1c(=O)c2c(ncn2CCCNC2=CC(C)(C)CC(=O)C2)n(C)c1=O,inconclusive: 1.1 nM
3,COc1ccc(N2CCN(C(=O)c3ccc(NS(=O)(=O)c4ccc(F)cc4)cc3)CC2)cc1,inconclusive: 1.1 nM
4,Oc1ccc(Cl)cc1C=Nc1cnc2ccccc2c1,inconclusive: 1.5 nM
5,CC(C)Cn1c(-c2cccs2)nc2nc3ccccc3nc21,inconclusive: 1.9 nM
6,Clc1ccc(Oc2nc(N3CCOCC3)nc(N3CCOCC3)n2)c(C2CCCCC2)c1,inconclusive: 2.6 nM
7,COC(=O)c1c(C)[nH]c(C(C)=O)c1C,inconclusive: 1.1 nM
8,N#Cc1c(-c2ccccc2)nc(N2CCCCCC2)[nH]c1=O,inconclusive: 1.2 nM
9,Cc1cc(NC(=O)Nc2ccc(F)c(Cl)c2)no1,inconclusive: 2.7 nM
10,Cc1ccc2cc(CN(Cc3ccccc3)Cc3nnnn3C3CCCC3)c(=O)[nH]c2c1,inconclusive: 1.5 nM
11,CC(C)(C)c1ccc(Cn2nnc3c(=O)[nH]c(C4CCN(C(=O)Cc5cccs5)CC4)nc32)cc1,inconclusive: 1.4 nM
12,O=C(Nc1ccccc1)N1CCCCC1c1cccnc1 (stereo not drawn),inconclusive: 1.1 nM
13,COc1ccccc1CNC(=O)Cn1nnc(-c2ccncc2)n1,inactive
14,CCC(=O)N(Cc1cc2cc(C)c(C)cc2[nH]c1=O)C1CCCCC1,inconclusive: 1.3 nM
15,Cc1cc(NC(=O)CSc2nnc3c(C)cc4ccccc4n23)no1,inconclusive: 1.4 nM
16,Cc1ccc(C(=O)CSc2nnc(CNc3ccc(C)cc3C)n2Cc2ccco2)cc1,inconclusive: 1.8 nM
17,CCCC1CC(=O)OC1(C)C(=O)CSc1n[nH]c(-c2ccccc2)n1 (stereo not drawn),inconclusive: 1.1 nM
18,CCOc1cc(C)c(C(C)C)cc1S(=O)(=O)N1CC(C)OC(C)C1 (stereo not drawn),inconclusive: 1.2 nM
19,COc1cccc(OCc2nc3ccccc3c(=O)n2N)c1,inconclusive: 1.1 nM
20,CSc1oc(-c2ccccc2)nc1C(N)=O,inconclusive: 1.6 nM
21,CN(C)C=Nc1c(Br)cc(Br)c2nonc12,inconclusive: 1.1 nM
22,S=C(NCC1CCCO1)n1nnc2ccccc21 (stereo not drawn),inconclusive: 2.4 nM

row,SMILES,max dye-equivalent concentration
1,O=C(CSc1ncnc2c1oc1ccccc12)Nc1cccc(F)c1,inconclusive: 2.3 nM
2,O=C(COc1ccc(Cl)cc1)NCc1nnc(SCC(=O)N2CCCCC2)o1,inconclusive: 1.2 nM
3,Cc1c(C(=O)OCC(=O)N2CC(C)OC(C)C2)oc2ccc(Br)cc12 (stereo not drawn),inconclusive: 2 nM
4,Cc1nnc(SCCCn2c(N3CCCCC3)nc3c2c(=O)[nH]c(=O)n3C)s1,inconclusive: 1.5 nM
5,COc1ccc(CSc2nc(N3CCOCC3)c3c(c2C#N)CC(C)(C)OC3)cc1,inconclusive: 1.6 nM
6,O=c1oc2c(CN3CCOCC3)c(O)c(Cl)cc2c2c1CCC2,inconclusive: 1.1 nM
7,O=C(O)c1ccc(Cl)c(S(=O)(=O)NCc2ccco2)c1,inconclusive: 1.5 nM
8,O=C(c1[nH]o[n+](=O)c1C(=O)c1csc2ccccc12)c1csc2ccccc12,inactive
9,Cc1sc2nc(C3CC3)nc(N3CCN(S(=O)(=O)c4ccc(F)cc4)CC3)c2c1C,inconclusive: 1.7 nM
10,COc1ccc(C(=O)OCCNC(=O)c2c(Cl)nc3ccccn23)cc1,inconclusive: 1.1 nM
11,O=C(CCCn1c(=S)[nH]c2ccsc2c1=O)NCc1ccco1,inconclusive: 1.3 nM
12,OCC1(CO)COC2(CCCC2)N1,inconclusive: 1.1 nM
13,CCNc1ncc2nc(-c3cn(C)c4ccccc34)c(=O)n(-c3ccccc3)c2n1,inactive
14,O=C1CC(c2cccc(Oc3ccccc3)c2)NC(=O)N1 (stereo not drawn),inconclusive: 1.1 nM
15,CCOc1ccc(N2CCCCn3c2nc2c3c(=O)[nH]c(=O)n2C)cc1,inconclusive: 2.5 nM
16,COc1ccc(CN2C(=O)CN=C2Nc2ccc(C)cc2C)cc1,inconclusive: 1.1 nM
17,O=C(O)c1csc(Br)c1Br,inconclusive: 1.3 nM
18,COc1cccc(Nc2ncc3nc(-c4ccc(F)cc4)c(=O)n(C[C@H]4CCCO4)c3n2)c1,inconclusive: 1.1 nM
19,C=CCc1ccccc1OC[C@H](O)CNC(C)C,inconclusive: 1.2 nM
20,CCOC(=O)CCCCC(=O)c1[nH]c(=O)[nH]c1Cn1ccnc1,inconclusive: 1.1 nM
21,CC(=O)c1ccc(NC(=O)N2CCN(c3cccc(Cl)c3)CC2)cc1,inconclusive: 1.3 nM
22,CCc1nc2scc(-c3ccccc3)c2c(=O)n1N,inconclusive: 1.7 nM

# Retrieved by compound from the entries so far:
row,SMILES,max dye-equivalent concentration
21,CC(=O)c1ccc(NC(=O)N2CCN(c3cccc(Cl)c3)CC2)cc1,inconclusive: 1.3 nM
12,OCC1(CO)COC2(CCCC2)N1,inconclusive: 1.1 nM
19,C=CCc1ccccc1OC[C@H](O)CNC(C)C,inconclusive: 1.2 nM
14,O=C1CC(c2cccc(Oc3ccccc3)c2)NC(=O)N1 (stereo not drawn),inconclusive: 1.1 nM

# (listing goes on)

row,SMILES,max dye-equivalent concentration
1,COc1ccccc1NC(=O)c1cn(C)c(=O)c2cc(OC)c(OC)cc12,inconclusive: 1.1 nM
2,COC(=O)C1(CCSC)NC(c2ccccc2OC)C2C(=O)N(C)C(=O)C21 (stereo not drawn),inconclusive: 1.6 nM
3,Cc1cc2c(cc1C)-c1nnnn1C(C)(C)C2,inconclusive: 1.3 nM
4,CN(C)CCC=C1c2ccccc2C=Cc2ccccc21,inconclusive: 1.1 nM
5,CCOc1cc(-c2noc(-c3ccncc3)n2)cc(Br)c1OC,inconclusive: 1.9 nM
6,Cn1c(=S)n(/N=C/c2ccc3c(c2)OCO3)c2ccccc21,inconclusive: 1.4 nM
7,O=C(CNS(=O)(=O)c1cccc(C(F)(F)F)c1)Nc1ccccc1F,inconclusive: 1.5 nM
8,COc1ccc(CCn2c(-c3ccco3)nc3nc4ccccc4nc32)cc1OC,inactive
9,Cc1ccc(NS(=O)(=O)c2ccc(C)c(C(=O)N3CCN(C)CC3)c2)cc1,inconclusive: 2.7 nM
10,Cc1ccc(S(=O)(=O)N2CCN(C(=O)C3CCCCC3)CC2)cc1,inconclusive: 2.1 nM
11,CN1C(=O)c2cccc(NCCCN3C(=O)c4ccccc4C3=O)c2C1=O,inactive
12,NS(=O)(=O)c1cc2c(cc1Cl)NCNS2(=O)=O,inactive
13,CC(Sc1nncs1)C(=O)NCc1ccc2c(c1)OCO2 (stereo not drawn),inconclusive: 1.5 nM
14,O=C(Nc1ccc(NC(=O)C2CC2)nc1)c1cccnc1,inconclusive: 2.3 nM
15,O=C(CSc1nnc(NCc2ccccc2)s1)c1ccco1,inconclusive: 1.1 nM
16,CCOC(=O)Cn1cc(C(=O)c2ccco2)c2ccccc21,inconclusive: 1.6 nM
17,Oc1ccc2[nH]cnc2c1CN1CCCCC1,inconclusive: 1.1 nM
18,O=C(COC(=O)CNC(=O)C1CCCCC1)Nc1ccc(Cl)cn1,inconclusive: 1.8 nM
19,c1cncc(-c2nc3cc(Cc4ccc5oc(-c6cccnc6)nc5c4)ccc3o2)c1,inconclusive: 1.1 nM
20,CCN(CC)CCCN(Cc1cc2cc3c(cc2[nH]c1=O)OCCO3)C(=O)Nc1ccc(F)cc1,inconclusive: 1.2 nM
21,COc1ccccc1C(=O)Nc1ncc2c(n1)CC(c1ccco1)CC2=O (stereo not drawn),inconclusive: 1.8 nM
22,CCCN(CCC)S(=O)(=O)c1ccc(NS(C)(=O)=O)cc1,inconclusive: 1.3 nM
